## Melanoma cell counts after drug treatment

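Human melanoma cell lines in 1,536-well plates were treated with two drugs together for 72 h, then fixed, stained and imaged. The read-out is cell count (nuclei) in % of the DMSO control; lower values mean stronger growth inhibition or killing. Every drug was used at one fixed concentration, the higher of two screened. No replicate spread is given; individual values may be noisy.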 Only some of the drugs and lines screened are listed, without regard to their results.

Drugs:
tanespimycin: C=CCNC1=C2C[C@@H](C)C[C@H](OC)[C@H](O)[C@@H](C)/C=C(\C)[C@H](OC(N)=O)[C@@H](OC)/C=C\C=C(/C)C(=O)NC(=CC1=O)C2=O at 10 nM
lapatinib: CS(=O)(=O)CCNCc1ccc(-c2ccc3ncnc(Nc4ccc(OCc5cccc(F)c5)c(Cl)c4)c3c2)o1 at 4000 nM
dorsomorphin: c1cc(-c2cnn3cc(-c4ccc(OCCN5CCCCC5)cc4)cnc23)ccn1 at 2000 nM
palbociclib: CC(=O)c1c(C)c2cnc(Nc3ccc(N4CCNCC4)cn3)nc2n(C2CCCC2)c1=O at 200 nM
GSK650394: O=C(O)c1ccc(-c2c[nH]c3ncc(-c4ccccc4)cc23)cc1C1CCCC1 at 800 nM
SNS-314: O=C(Nc1cccc(Cl)c1)Nc1ncc(CCNc2ncnc3ccsc23)s1 at 4 nM
Src-I1: COc1cc2ncnc(Nc3ccc(Oc4ccccc4)cc3)c2cc1OC at 10000 nM
stibogluconate: O=C(O)[C@@H]1[O][Sb](=[O])([O][Sb]2(=[O])[O][C@H]([C@H](O)CO)[C@H](O)[C@H](C(=O)O)[O]2)[O][C@H]([C@H](O)CO)[C@@H]1O (stereo partly specified) at 10000 nM
SU6656: CN(C)S(=O)(=O)c1ccc2c(c1)/C(=C/c1cc3c([nH]1)CCCC3)C(=O)N2 at 2000 nM

{"drugs": "dorsomorphin + GSK650394", "WM451Lu": 67.3, "WM3619": 100, "COLO 792": 85.3, "COLO 829": 81.7, "C32": 66.1, "COLO 800": 70.6}
{"drugs": "GSK650394 + Src-I1", "WM451Lu": 76.2, "WM3619": 66.3, "COLO 792": 62.8, "COLO 829": 113, "C32": 109, "COLO 800": 108}
{"drugs": "GSK650394 + lapatinib", "WM451Lu": 98.9, "WM3619": 76.5, "COLO 792": 68.8, "COLO 829": 72.4, "C32": 95.0, "COLO 800": 51.0}
{"drugs": "dorsomorphin + tanespimycin", "WM451Lu": 66.9, "WM3619": 31.4, "COLO 792": 82.9, "COLO 829": 66.3, "C32": 16.8, "COLO 800": 87.6}
{"drugs": "palbociclib + dorsomorphin", "WM451Lu": 68.2, "WM3619": 56.6, "COLO 792": 54.3, "COLO 829": 76.3, "C32": 61.0, "COLO 800": 91.4}
{"drugs": "SU6656 + Src-I1", "WM451Lu": 64.8, "WM3619": 58.8, "COLO 792": 54.0, "COLO 829": 71.1, "C32": 82.8, "COLO 800": 34.1}
{"drugs": "stibogluconate + SNS-314", "WM451Lu": 48.4, "WM3619": 69.5, "COLO 792": 34.6, "COLO 829": 70.2, "C32": 72.6, "COLO 800": 30.7}
{"drugs": "GSK650394 + SU6656", "WM451Lu": 75.6, "WM3619": 95.9, "COLO 792": 60.2, "COLO 829": 66.6, "C32": 80.3, "COLO 800": 52.0}
{"drugs": "lapatinib + SNS-314", "WM451Lu": 39.4, "WM3619": 69.9, "COLO 792": 42.2, "COLO 829": 63.1, "C32": 57.0, "COLO 800": 40.1}
{"drugs": "tanespimycin + stibogluconate", "WM451Lu": 72.0, "WM3619": 79.8, "COLO 792": 78.5, "COLO 829": 108, "C32": 28.7, "COLO 800": 108}
{"drugs": "GSK650394 + tanespimycin", "WM451Lu": 62.6, "WM3619": 78.2, "COLO 792": 44.9, "COLO 829": 77.0, "C32": 17.8, "COLO 800": 76.5}
{"drugs": "palbociclib + lapatinib", "WM451Lu": 57.4, "WM3619": 50.8, "COLO 792": 49.9, "COLO 829": 89.5, "C32": 60.2, "COLO 800": 153}
{"drugs": "Src-I1 + stibogluconate", "WM451Lu": 88.7, "WM3619": 111, "COLO 792": 65.5, "COLO 829": 115, "C32": 93.6, "COLO 800": 65.2}
{"drugs": "SNS-314 + SU6656", "WM451Lu": 46.5, "WM3619": 93.0, "COLO 792": 37.7, "COLO 829": 61.4, "C32": 77.5, "COLO 800": 27.4}
{"drugs": "lapatinib + Src-I1", "WM451Lu": 72.4, "WM3619": 39.6, "COLO 792": 56.9, "COLO 829": 62.4, "C32": 61.1, "COLO 800": 57.3}
{"drugs": "GSK650394 + stibogluconate", "WM451Lu": 92.3, "WM3619": 106, "COLO 792": 109, "COLO 829": 92.8, "C32": 77.5, "COLO 800": 95.2}
{"drugs": "lapatinib + SU6656", "WM451Lu": 77.1, "WM3619": 58.3, "COLO 792": 45.1, "COLO 829": 56.7, "C32": 82.8, "COLO 800": 43.0}
{"drugs": "SNS-314 + tanespimycin", "WM451Lu": 53.9, "WM3619": 52.5, "COLO 792": 33.0, "COLO 829": 71.1, "C32": 15.6, "COLO 800": 33.2}
{"drugs": "Src-I1 + palbociclib", "WM451Lu": 60.0, "WM3619": 62.8, "COLO 792": 47.3, "COLO 829": 78.0, "C32": 79.7, "COLO 800": 89.0}
{"drugs": "tanespimycin + palbociclib", "WM451Lu": 48.9, "WM3619": 53.2, "COLO 792": 47.1, "COLO 829": 82.6, "C32": 17.1, "COLO 800": 76.5}

For reference, 2 entries once more:

Drugs	WM451Lu	WM3619	COLO 792	COLO 829	C32	COLO 800
GSK650394 + stibogluconate	92.3	106	109	92.8	77.5	95.2
palbociclib + lapatinib	57.4	50.8	49.9	89.5	60.2	153

Data from the primary screen of doi:10.1371/journal.pone.0140310, rounded.